PubChem BioAssay AID652272 – Drosophila RNAi Screening Center, 2013
The screen tested about 21,000 reagents; this is an unselected part of those that have a named target and a result. In the full data, 503 (2.4%) got an active call. 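Raw plate light values, not normalised; calls rest on replicate z-scores that were not deposited; hits include reporter decreases as well as increases.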 A plus sign joins genes that one reagent is predicted to hit. Reagent sequences are not shown. Not stated in the record: the amount of reagent, the time to read-out.

Test: 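Genome-wide knock-down search for components of Hedgehog signalling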 (primary screen)
System: Drosophila clone 8 (Cl8) cells
Reagents: long dsRNA against Drosophila genes
Measured: 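Firefly light from a Hedgehog-responsive ptc promoter reporter and Renilla reference light, both read on a plate reader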
Direction: firefly Hh reporter signal: higher = more ptc reporter light; Renilla reference signal: higher = more Renilla control light
Active means: 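Hit when the z-score averaged over two replicates is under -2 or over +3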
Calls: active = hit: reporter lowered or raised; inactive = not a hit

gene | amplicon | firefly Hh reporter signal, replicate 1 | firefly Hh reporter signal, replicate 2 | firefly Hh reporter signal, replicate 3 | Renilla reference signal, replicate 1 | Renilla reference signal, replicate 2 | call
CG4956 | DRSC15683 | 5.44e5 | 1.03e5 | – | 29216 | 2916 | inactive
CG9727 | DRSC12585 | 1.28e5 | 68933 | – | 5152 | 2929 | inactive
Osi11 (Osiris 11) | DRSC12282 | 59398 | 81522 | – | 2075 | 2256 | inactive
ninaG | DRSC16102 | 81224 | 91943 | – | 2800 | 2560 | inactive
CG30378 | DRSC05071 | 86000 | 1.87e5 | – | 7664 | 8442 | inactive
IntS4 (Integrator 4) | DRSC17810 | 83240 | 92317 | – | 2336 | 2769 | inactive
dpr4 (defective proboscis extension response 4) | DRSC14531 | 1.17e5 | 1.39e5 | – | 3996 | 3483 | inactive
dpr4 (defective proboscis extension response 4) | DRSC14929 | 1.40e5 | 1.42e5 | – | 4864 | 4624 | inactive
Eaat2 (Excitatory amino acid transporter 2) | DRSC00032 | 6.34e5 | 2.90e5 | – | 33147 | 11963 | inactive
Eaat2 (Excitatory amino acid transporter 2) | DRSC00749 | 1.12e5 | 1.15e5 | – | 4866 | 4985 | inactive
Rab30 | DRSC03137 | 1.60e5 | 83243 | – | 3984 | 7763 | inactive
CG33770 | DRSC11717 | 93721 | 98155 | – | 1809 | 1577 | inactive
D (Dichaete) | DRSC11132 | 71912 | – | – | 3281 | 2080 | inactive
CG6654 | DRSC16084 | 1.31e5 | 97541 | – | 5000 | 3396 | inactive
LManVI (Lysosomal alpha-mannosidase VI) | DRSC03224 | 73960 | 32790 | – | 1979 | 3243 | inactive
CG4461 | DRSC10423 | 20464 | 46150 | 49304 | 3618 | 4038 | inactive
ppk11 (pickpocket 11) | DRSC02737 | 77543 | 35392 | – | 1744 | 2884 | inactive
tkv (thickveins) | DRSC00860 | 7.10e5 | 2.78e5 | – | 30041 | 13312 | inactive
tkv (thickveins) | DRSC03623 | 59610 | 66440 | – | 2508 | 2365 | inactive
Tsp42Eo (Tetraspanin 42Eo) | DRSC06184 | 47275 | 35859 | – | 1446 | 3568 | inactive
BomT2 (Bomanin Tailed 2) | DRSC06631 | 1.02e5 | 77610 | – | 2508 | 5085 | inactive
PIG-U (Phosphatidylinositol glycan anchor biosynthesis class U) | DRSC02193 | 63779 | 79863 | – | 2981 | 3002 | inactive
Pka-C2 (Protein kinase, cAMP-dependent, catalytic subunit 2) | DRSC16790 | 36056 | 57333 | – | 1629 | 2579 | inactive
Bap111 (Brahma associated protein 111kD) | DRSC18419 | 1.06e5 | 6.26e5 | 94689 | 2677 | 29811 | inactive
Rab9Db + Rab9D + Rab9Fa + 1 more | DRSC17662 | 4.89e5 | 1.92e5 | – | 29257 | 4274 | inactive
CG34224 | DRSC05269 | 1.00e5 | 1.76e5 | – | 3264 | 8160 | inactive
CG8750 | DRSC11037 | 48464 | 50036 | 67377 | 3570 | 3653 | inactive
CR42548 (pseudo) | DRSC09514 | 2.79e5 | – | – | 6278 | – | inactive
CG15167 | DRSC02468 | 88199 | 67332 | – | 2042 | 6359 | inactive
uri (unconventional prefoldin RPB5 interactor) | DRSC04111 | 50273 | 43030 | – | 3336 | 2849 | active
Brd (Bearded) | DRSC09685 | 80720 | – | – | 1811 | 2457 | inactive
CG15439 | DRSC00453 | 3.56e5 | 1.24e5 | – | 5856 | 5856 | inactive
CG4259 | DRSC00645 | 75318 | 73937 | – | 2080 | 1688 | inactive
CG42268 | DRSC10171 | 29675 | 47401 | 32432 | 6185 | 4245 | active
CG42268 | DRSC10702 | 30151 | 44612 | 53602 | 3616 | 3639 | inactive
Trf2 (TATA box binding protein-related factor 2) | DRSC18727 | 72429 | 1.60e5 | – | 2669 | 5922 | inactive
Cul5 (Cullin 5) | DRSC14723 | 1.20e5 | 97618 | – | 4657 | 2512 | inactive
CG31436 | DRSC14661 | 5.38e5 | 1.23e5 | – | 28228 | 3853 | inactive
Naxe (NAD(P)HX epimerase) | DRSC18251 | 67253 | 1.33e5 | – | 1467 | 5954 | inactive
fln (flightin) | DRSC11346 | 1.52e5 | 88668 | – | 5127 | 4003 | inactive
nAChRalpha2 (nicotinic Acetylcholine Receptor alpha2) | DRSC17009 | 1.13e5 | 1.04e5 | – | 4375 | 3668 | inactive
htt (huntingtin) | DRSC16970 | 84503 | 80832 | – | 2192 | 2230 | inactive
ver (verrocchio) | DRSC10125 | 30809 | 62453 | 87804 | 6813 | 5883 | inactive
CG3603 | DRSC18317 | 1.00e5 | 2.50e5 | – | 4048 | 9312 | inactive
Cyp4d20 (Cytochrome P450 4d20) | DRSC08654 | 87703 | 60045 | – | 2752 | 4220 | inactive
CG11113 | DRSC06039 | 81360 | 49393 | – | 2008 | 4288 | inactive
Osi3 (Osiris 3) | DRSC12175 | 97697 | 96832 | – | 3896 | 2628 | inactive
Ars2 (Arsenic resistance protein 2) | DRSC04893 | 98662 | 1.18e5 | – | 5393 | 6272 | inactive
CG14331 | DRSC14810 | 66096 | 71762 | – | 1545 | 1832 | inactive
CG14625 | DRSC18633 | 61938 | 1.42e5 | – | 1794 | 5493 | inactive
CG10909 | DRSC14282 | 1.17e5 | 91666 | – | 4311 | 2216 | inactive
CG5909 | DRSC15914 | 69696 | 88084 | – | 2540 | 2210 | inactive
CG43397 + CG12902 | DRSC06217 | 87488 | 66101 | – | 1960 | 5664 | inactive
bnk (bottleneck) | DRSC16912 | 74584 | 97778 | – | 3123 | 3613 | inactive
bbg (big bang) | DRSC11077 | 1.40e5 | – | – | 7456 | 4102 | inactive
bbg (big bang) | DRSC11079 | 55778 | – | – | 3160 | 2019 | inactive
zld (zelda) | DRSC19486 | 1.08e5 | 2.37e5 | – | 2600 | 9384 | inactive

Laid out differently: 4 of the entries above
CG14331 [DRSC14810]: firefly Hh reporter signal, replicate 1 = 66096; firefly Hh reporter signal, replicate 2 = 71762; Renilla reference signal, replicate 1 = 1545; Renilla reference signal, replicate 2 = 1832; call = inactive
CG14625 [DRSC18633]: firefly Hh reporter signal, replicate 1 = 61938; firefly Hh reporter signal, replicate 2 = 1.42e5; Renilla reference signal, replicate 1 = 1794; Renilla reference signal, replicate 2 = 5493; call = inactive
CG10909 [DRSC14282]: firefly Hh reporter signal, replicate 1 = 1.17e5; firefly Hh reporter signal, replicate 2 = 91666; Renilla reference signal, replicate 1 = 4311; Renilla reference signal, replicate 2 = 2216; call = inactive
CG5909 [DRSC15914]: firefly Hh reporter signal, replicate 1 = 69696; firefly Hh reporter signal, replicate 2 = 88084; Renilla reference signal, replicate 1 = 2540; Renilla reference signal, replicate 2 = 2210; call = inactive
